From patent publication US10083341B2, “Cellular activity quantification using labeled probes” (Oregon Health & Science University, priority 2014, dated 2018)
Entries after “also recorded” stand apart in the source; their conditions may differ. For at least one compound, name, drawing or mass did not settle the structure.

What was measured:
Assay type in all cases: cell-based, human
pSTAT3 = test: SC-QDP discrete QD counting of pSTAT3 in K562 cells
pSTAT5 [1] = test: SC-QDP pSTAT5 in MNCs of a healthy subject; details: dasatinib-treated
pCRKL = test: SC-QDP discrete QD counting of pCRKL in K562 cells
Protocol: (§1) Cell culture and kinase inhibitor treatment. Primary mononuclear cells (MNCs) were isolated from peripheral blood or bone marrow of newly diagnosed, untreated patients with chronic phase CML. MNCs were isolated by centrifugation through a Ficoll gradient, and red blood cells were lysed with 1×ACK (0.15 M NH4Cl, 10 mM KHCO3, 0.1 mM EDTA). MNCs were grown in serum-free media consisting of IMDM supplemented with 20% BIT (Stem Cell Technologies), 40 μg/ml low-density lipoprotein (Sigma-Aldrich), 10^-6 M β-mercaptoethanol, and the following cytokines: 100 ng/ml SCF (Stem Cell Technologies), 100 ng/ml G-CSF, 20 ng/ml FLT3 ligand, 20 ng/ml IL-3, and 20 ng/ml IL-6 (Sigma-Aldrich). MNCs were grown at a density of 5×10^5 cells/ml at 37° C., 5% CO2, overnight in a humidified incubator before drug treatment. […]
(§2) SC-QDP image acquisition. Cells were imaged with an inverted fluorescent microscope (Zeiss AxioObserver) equipped with high magnification objectives, QD filter sets (Semrock), and a Luca-R camera (Andor) suitable for detecting discrete QD fluorescence. […]
(§3) SC-QDP discrete QD counts in single cells. Levels of phosphoprotein activity were quantified in single cells using automated software imaging algorithms. […]

pSTAT5 [2] = test: SC-QDP pSTAT5 in single CD34+ cells from CML patients; details: CD34+ cells of CML patients, dasatinib 100 nM, 4 h
Protocol: as §1, §2, §3

pSTAT5 [3] = test: SC-QDP discrete QD counting of pSTAT5 in K562 cells
[4] = 4 h, increasing concentrations, SC-QDP, also immunoblot

Question: What does the source list for `Cc1nc(Nc2ncc(C(=O)Nc3c(C)cccc3Cl)s2)cc(N2CCN(CCO)CC2)n1` [dasatinib]?
Answer: mean pSTAT3 phosphoactivity versus dasatinib concentration (pSTAT3; [4]): decreasing phosphoactivity with increasing concentration; also recorded: gradual inhibition; pSTAT3 phosphoactivity (QDs per cell) (pSTAT3; dasatinib 100 nM): largely suppressed phosphoactivity; pSTAT5 expression levels (pSTAT5 [1]): close to assay noise; mean pCRKL phosphoactivity versus dasatinib concentration (pCRKL; [4]): decreasing phosphoactivity with increasing concentration; also recorded: gradual inhibition; pCRKL phosphoactivity (QDs per cell) (pCRKL; dasatinib 100 nM): largely suppressed phosphoactivity; mean pSTAT5 change following treatment (pSTAT5 [2]): mean reduction of pSTAT5; mean pSTAT5 phosphoactivity versus dasatinib concentration (pSTAT5 [3]; [4]): decreasing phosphoactivity with increasing concentration; also recorded: sharp dasatinib-induced inhibition; pSTAT5 phosphoactivity (QDs per cell) (pSTAT5 [3]; dasatinib 100 nM): largely suppressed phosphoactivity
